We go through two substances from patent publication US5516642 (dated 1996).

A short description of the data set: general procedure: Fmoc solid-phase peptide synthesis; para-alkoxybenzyl ester linkage. The following applies: for final HPLC purity: 215 nm.

With “Glycyl-L-asparaginyl-L-α-glutamyl-L-glutaminyl-L-seryl-L-phenylalanyl-L-arginyl-L-valyl-L-α-aspartyl-L-leucyl-L-arginyl-L-threonyl-L-leucyl-L-leucyl-arginyl-4-hydroxy-3,5-diiodo-L-phenylalanyl-L-alanine.”, the “final HPLC purity” value (late stage modification step) was “greater than 98%”. Besides, the step yield (late stage modification step, from Example 1) is on record as 53%, from Example 1%.
“Glycyl-L-asparaginyl-L-α-glutamyl-Lglutaminyl-L-seryl-L-phenylalanyl- L-arginyl-L-valyl-L-α-aspartyl-L-leucyl-L-arginyl-L-thereonyl-L-leucyl-L-leucyl-L-arginyl-L-tyrosyl-L-alanine.” displayed a step yield (purification step) of 43%. Moreover, the “final HPLC purity” value (whole synthesis) was “greater than 98%”. Moreover, the crude yield entry (whole synthesis, of theory) is given as “greater than 100% of theory”. The substance also yielded a crude mass (whole synthesis, scale 0.102 mmol) of 385 mg.
